Reference: PubChem BioAssay AID2718 (Broad Institute, 2010)
In all, about 320,000 compounds went through this assay and about 480 (0.15%) were called active. The shares of active, inactive and inconclusive entries below differ from those in the screen. No stated cut-off is given here; in the data, active means inhibition above about 26% (passing the limit was not always enough); inconclusive means no clear call, values can overlap the other calls.

By UniProt entry, the sequences of proteins in these tests, tags left out.
UniProt O15379, whole entry, looked up: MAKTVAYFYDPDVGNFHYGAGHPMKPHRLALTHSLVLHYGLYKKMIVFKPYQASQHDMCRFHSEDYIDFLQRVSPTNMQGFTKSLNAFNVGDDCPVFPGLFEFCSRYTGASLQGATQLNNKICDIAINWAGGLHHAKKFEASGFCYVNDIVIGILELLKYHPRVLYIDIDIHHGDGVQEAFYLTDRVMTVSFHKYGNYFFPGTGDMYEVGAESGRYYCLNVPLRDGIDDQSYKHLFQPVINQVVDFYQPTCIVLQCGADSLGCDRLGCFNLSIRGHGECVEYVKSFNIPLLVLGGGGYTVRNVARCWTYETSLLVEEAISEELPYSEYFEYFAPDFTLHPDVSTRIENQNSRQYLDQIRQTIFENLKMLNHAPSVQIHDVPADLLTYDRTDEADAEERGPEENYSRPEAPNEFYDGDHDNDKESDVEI

biological target: Histone deacetylase 3 (Homo sapiens) (UniProt O15379); experiment: HDAC3 deacetylase inhibitors, primary screen, biochemical, fluorescence, cell-free homogeneous (AID 2718); conditions: recombinant HDAC3, fluorogenic peptide/trypsin coupled, at 8.3 µM, active compounds read high

| Structure (SMILES) | inhibition |
| --- | --- |
| COc1ccc(C(=O)CN2CCN(S(=O)(=O)c3cccc([N+](=O)[O-])c3)CC2)cc1OC | active: 53.3% |
| CC(=O)N1N=C(c2ccc(C)cc2)OC1c1cccnc1 (centres undefined) | inactive: -4.02% |
| Cc1cccc(C)c1NC(=O)C1c2cccc[n+]2CC(=O)N1Cc1cccs1 (centres undefined) | inconclusive: 15% |
| O=C1Nc2ccccc2C1=Nc1ccc(S(=O)(=O)Nc2nccs2)cc1 | inconclusive: 25.9% |
| C[C@H](CO)N1C[C@H](C)[C@@H](CN(C)C)Oc2c(NC(=O)CCCCCC(=O)Nc3ccccc3N)cccc2C1=O | active: 67.2% |
| Cc1cccc(C)c1NC(=O)COC(=O)c1ccccc1[N+](=O)[O-] | inactive: -5.21% |
| Cc1noc(C)c1CN(C(=S)NC1CC2CCC1C2)c1ccccc1 (centres undefined) | inconclusive: 22.7% |
| COc1cccc(C(=O)O/N=C(\N)c2ccc(C)cc2)c1 | inactive: 2.84% |
| COc1cc(C2c3c([nH]c(=O)[nH]c3=O)Nc3ccc4ccccc4c32)ccc1O (centres undefined) | inconclusive: 16.6% |
| CCn1c(CSc2nc3ccccc3s2)nnc1SCC(=O)c1ccc(Cl)cc1 | inactive: -0.0792% |
| CCOC(=O)CC1C(=O)NCCN1S(=O)(=O)c1ccccc1 (centres undefined) | inconclusive: 6.76% |
| COc1ccc(-c2cn(Cc3ccc(C(=O)NCc4ccc(C)cc4)cc3)c(C(C)N)n2)cc1 (centres undefined) | inconclusive: 14.8% |
| O=c1c2[nH]c3cccc(Cl)c3c2ncn1CCN1CCCCC1 | inconclusive: 20.2% |
| Cc1ccc(-c2noc(CCC(=O)N3CCN(c4cccc(C(F)(F)F)c4)CC3)n2)cc1 | inconclusive: 23.2% |
| COc1ccc(N=C2SC(CC(=O)Nc3ccccc3)C(=O)N2Cc2ccco2)cc1 (centres undefined) | inconclusive: 23.7% |
| COc1ccccc1C(=O)Nc1nc(-c2ccc(S(=O)(=O)N3CCOCC3)cc2)cs1 | inconclusive: 11.3% |
| CCN(C(=O)CCCC(=O)N(CC)c1ccccc1)c1ccccc1 | inconclusive: 12.8% |
| O=C(NCc1cc(C(F)(F)F)ccc1F)C1CCC(=O)N(C2CCCCCC2)C1 (centres undefined) | inconclusive: 24.6% |
| C[C@]1(C(=O)O)Cc2oncc2C[C@@H]1C(=O)O | inactive: -0.962% |
| C=CCOC(=O)C1=C(C)NC(=O)NC1c1ccc(OC(=O)c2ccco2)c(OC)c1 (centres undefined) | inconclusive: 24.7% |
| CC(C)C[C@H](NC(=O)c1[nH]cnc1C(=O)N[C@@H](C)C(=O)OC(C)(C)C)C(=O)OCc1ccccc1 | inconclusive: 33.7% |
| Cc1cc(/C=C2/NC(=O)N(Cc3ccccc3F)C2=O)c(C)n1-c1ccccn1 | active: 44.1% |
| O=C(c1cccc(S(=O)(=O)N2CCN(c3ccccc3)CC2)c1)N1CCCCCCC1 | inconclusive: 16.8% |
| CCCCCNC(=O)CC1Nc2c3ccccc3nc(=S)n2C1=O (centres undefined) | inactive: -1.08% |
| O=C(CC1C(=O)NCCN1Cc1ccc(F)c(F)c1)NCCn1cccn1 (centres undefined) | inconclusive: 19.1% |
| COc1ccc(C(=O)NCC(C)(C)SCc2c(C)cc(C)cc2C)cc1 | inactive: -3.86% |
| C=CCn1cc(C(=O)NCCCN(CC)CC)c(=O)c2cc(S(=O)(=O)N3CCC(C)CC3)ccc21 | inconclusive: 16.1% |

| Structure (SMILES) | inhibition |
| --- | --- |
| Cc1oc(/N=C/c2ccccc2)c(C#N)c1C | inactive: 8.7% |
| CC(=O)N(C)c1ccc(OCC(O)Cn2c3ccc(Cl)cc3c3cc(Cl)ccc32)cc1 (centres undefined) | inconclusive: 16.3% |
| COc1cccc(Cn2nnc(C(=O)NCc3ccc4c(c3)OCO4)c2N)c1 | inconclusive: 26.2% |
| CC(=O)Nc1ccc(C(=O)CSc2nc3ccccc3n2CC(=O)N2CCCC2)cc1 | active: 67.3% |
| N#C/C(=C\c1cccc([N+](=O)[O-])c1)c1nnc2n1CCCCC2 | inactive: 1.9% |
| COC(=O)C1=CN(C2CC2)C=C(C(=O)OC)C1c1ccc(C(F)(F)F)cc1 | inconclusive: 13.5% |
| O=C(N/N=C/c1ccc[nH]1)c1cc2ccccc2cc1O | inactive: 12.6% |
| COc1cc(C2NC(=S)NC(c3ccccc3)=C2C(C)=O)cc(Br)c1OCC(N)=O (centres undefined) | inconclusive: 7.14% |
| COc1ccc(C(=O)n2nc(-c3ccccc3)nc2N)cc1OC | active: 61.7% |
| COc1ccc(C(C)=O)cc1CN(c1ccccc1OC)S(=O)(=O)c1cccs1 | inactive: 2.57% |
| CCOC(=O)c1c(C)[nH]c(N=Nc2ccccc2C)c1C | inconclusive: 27.3% |
| COc1ccc(C(=O)n2cc(C(=O)c3cc(C)ccc3O)cn2)cc1 | active: 37.2% |
| CC(C)COP(=O)(OCC(C)C)C(Nc1ccccc1)c1ccc(F)cc1 (centres undefined) | inconclusive: 12.3% |
| COc1ccc(C2N(c3ccc(C)cc3)CCN2c2ccc(C)cc2)cc1O | inconclusive: 14.8% |
| C=CC[C@H](CC(=O)OC(C)(C)C)C(=O)OC[C@H]1CCCN1C(=O)[C@H](CC=C)CC(=O)N(CCO)Cc1ccccc1 | inactive: 1.66% |
| Cc1cccc(NC(=S)Nc2cccc(C(F)(F)F)c2)n1 | inactive: -3.24% |
| CCCc1cc(=O)[nH]c(SCC(=O)Nc2nc(-c3ccccc3)cs2)n1 | inconclusive: 22.5% |
| Cc1ccc(-c2nc3c(Cl)cc(Cl)cc3c(=O)n2O)cc1 | inactive: -2.12% |
| COCCn1c(SCC(=O)c2ccc3c(c2)OCCO3)nnc1C(C)C | inconclusive: 14.6% |
| CN(O)/C=C1\C(=O)Nc2ccccc21 | inactive: 2.9% |
| Cc1cccc(NC(=O)CCC(=O)N/N=C/c2ccc(O)cc2O)c1 | inconclusive: 12.9% |
| CCOc1cc(/C=C(\C#N)c2nc(-c3cccs3)c(NC(C)=O)s2)ccc1O | inconclusive: 16.3% |
| CCCOc1ccc(-c2c(C(=O)N/N=C/C3CC=CCC3)nnn2-c2nonc2N)cc1 (centres undefined) | inconclusive: 12% |
| Cc1cc(C(=O)CSc2nc(N)cc(=O)[nH]2)c(C)n1CC1CCCO1 (centres undefined) | inactive: -3.92% |
| COC(=O)[C@@]12CCCCN1[C@H](c1ccc(-c3cccc(Cl)c3)c(OC)c1)[C@@H]1C(=O)N(C)C(=O)[C@@H]12 | active: 32.7% |
| CN(C)S(=O)(=O)Oc1ccsc1C(=O)Nc1ccccc1Cl | inconclusive: 6.1% |
| CC(=O)Oc1oc(-c2ccccc2)nc1/C=N/c1ccccn1 | active: 83.5% |

Structural class: those above with a furan ring, fused or not.

| Structure (SMILES) | inhibition |
| --- | --- |
| COc1ccc(N=C2SC(CC(=O)Nc3ccccc3)C(=O)N2Cc2ccco2)cc1 (centres undefined) | inconclusive: 23.7% |
| C=CCOC(=O)C1=C(C)NC(=O)NC1c1ccc(OC(=O)c2ccco2)c(OC)c1 (centres undefined) | inconclusive: 24.7% |
| Cc1oc(/N=C/c2ccccc2)c(C#N)c1C | inactive: 8.7% |
